Changes are numbered by the printed parent chain. These are yes or no findings as the source states them, for the method shown. In cells and extracts the contact can be indirect. Some entries that bind do so weakly or less than the wild type.
Key:
[1] = target: T1, CLCC1 (chloride channel CLIC-like 1), wild type (human) (UniProt Q96S66); test: co-IP; Dynabeads Protein G loaded with CLCC1 antibody (HPA013210), incubated 2 h at 4°C with total ARPE19 protein lysate (20 mM Tris-HCl, 150 mM KCl, 0.1% Triton); western blot for Calreticulin
T1 sequence: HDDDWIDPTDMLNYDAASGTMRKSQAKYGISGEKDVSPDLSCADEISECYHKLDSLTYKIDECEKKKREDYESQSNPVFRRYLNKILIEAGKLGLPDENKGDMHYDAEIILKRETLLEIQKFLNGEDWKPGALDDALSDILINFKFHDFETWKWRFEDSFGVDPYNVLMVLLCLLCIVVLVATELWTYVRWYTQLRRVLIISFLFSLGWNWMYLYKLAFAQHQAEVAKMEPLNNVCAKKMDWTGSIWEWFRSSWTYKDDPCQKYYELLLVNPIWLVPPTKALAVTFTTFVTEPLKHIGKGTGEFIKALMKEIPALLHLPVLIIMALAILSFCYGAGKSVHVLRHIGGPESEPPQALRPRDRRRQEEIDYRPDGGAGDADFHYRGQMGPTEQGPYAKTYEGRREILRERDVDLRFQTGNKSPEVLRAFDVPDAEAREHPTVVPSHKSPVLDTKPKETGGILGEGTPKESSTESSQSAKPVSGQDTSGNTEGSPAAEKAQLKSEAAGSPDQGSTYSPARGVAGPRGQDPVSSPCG

[2] = target: T2, CLCC1 p.D25E mutant (human) (UniProt Q96S66); test: as above
T2 sequence: T1 sequence with D7E

binding [1]: binds
binding [2]: binds
Substance: Calreticulin (from UniProt P27797 18-417)

Reference: PMC6133373
